In the supplement of paper PMC12823440, “Inhibitors supercharge kinase turnover through native proteolytic circuits” (Nature, 2025):
Some of the results follow. The calls rarely recur for the same compound in another form.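 Kinases, fused to nanoluciferase, were expressed in K562 cells; luminescence was measured every 4 h from 2 to 18 h as percent of control (DMSO = 100%, positive control = 0%). A time point is decreased if signal falls significantly (2 sigma). Hits were called by the authors by a rule that is not shown; the count of time points alone does not decide it.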

Amino acid sequences for entries named in this document (tags omitted). A change or cut given only in a name is not applied to a line headed by its entry.
UniProt Q16288, whole entry, looked up: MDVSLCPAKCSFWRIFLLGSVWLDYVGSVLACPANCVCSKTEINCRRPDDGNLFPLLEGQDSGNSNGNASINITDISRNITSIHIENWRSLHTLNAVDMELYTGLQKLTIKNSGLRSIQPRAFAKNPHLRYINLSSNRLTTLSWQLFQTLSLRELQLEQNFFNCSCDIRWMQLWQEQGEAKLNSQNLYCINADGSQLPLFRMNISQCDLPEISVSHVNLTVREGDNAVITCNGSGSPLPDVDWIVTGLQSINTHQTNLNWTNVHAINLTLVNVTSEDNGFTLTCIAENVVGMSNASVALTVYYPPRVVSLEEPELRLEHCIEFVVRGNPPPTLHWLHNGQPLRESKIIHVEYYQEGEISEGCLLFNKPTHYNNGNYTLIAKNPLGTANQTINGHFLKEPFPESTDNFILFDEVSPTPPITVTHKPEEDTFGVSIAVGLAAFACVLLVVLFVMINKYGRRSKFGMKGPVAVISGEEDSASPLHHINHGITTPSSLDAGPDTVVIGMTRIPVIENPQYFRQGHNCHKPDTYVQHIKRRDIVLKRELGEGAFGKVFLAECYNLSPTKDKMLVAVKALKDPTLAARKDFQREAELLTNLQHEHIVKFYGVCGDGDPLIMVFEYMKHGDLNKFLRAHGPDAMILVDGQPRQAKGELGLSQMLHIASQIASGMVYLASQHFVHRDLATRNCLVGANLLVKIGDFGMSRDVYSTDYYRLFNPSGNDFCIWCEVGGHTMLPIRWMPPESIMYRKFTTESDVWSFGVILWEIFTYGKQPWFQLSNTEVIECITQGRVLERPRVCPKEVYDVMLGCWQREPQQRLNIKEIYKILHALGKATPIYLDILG
UniProt O96013: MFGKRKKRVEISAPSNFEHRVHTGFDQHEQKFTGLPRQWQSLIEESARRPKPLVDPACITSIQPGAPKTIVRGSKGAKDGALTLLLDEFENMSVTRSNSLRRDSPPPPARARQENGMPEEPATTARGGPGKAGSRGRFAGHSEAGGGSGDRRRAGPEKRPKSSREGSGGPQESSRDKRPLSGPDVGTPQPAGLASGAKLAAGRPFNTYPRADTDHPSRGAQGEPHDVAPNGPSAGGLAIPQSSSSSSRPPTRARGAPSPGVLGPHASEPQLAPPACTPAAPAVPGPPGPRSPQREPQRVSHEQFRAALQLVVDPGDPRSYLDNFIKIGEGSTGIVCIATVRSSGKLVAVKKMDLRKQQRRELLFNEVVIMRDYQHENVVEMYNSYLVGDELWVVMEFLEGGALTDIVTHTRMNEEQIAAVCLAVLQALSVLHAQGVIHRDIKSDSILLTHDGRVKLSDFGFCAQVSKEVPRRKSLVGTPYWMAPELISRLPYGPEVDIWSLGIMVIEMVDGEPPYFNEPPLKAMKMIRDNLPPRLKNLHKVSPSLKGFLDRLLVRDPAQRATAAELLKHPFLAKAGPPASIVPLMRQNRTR
UniProt Q96KB5: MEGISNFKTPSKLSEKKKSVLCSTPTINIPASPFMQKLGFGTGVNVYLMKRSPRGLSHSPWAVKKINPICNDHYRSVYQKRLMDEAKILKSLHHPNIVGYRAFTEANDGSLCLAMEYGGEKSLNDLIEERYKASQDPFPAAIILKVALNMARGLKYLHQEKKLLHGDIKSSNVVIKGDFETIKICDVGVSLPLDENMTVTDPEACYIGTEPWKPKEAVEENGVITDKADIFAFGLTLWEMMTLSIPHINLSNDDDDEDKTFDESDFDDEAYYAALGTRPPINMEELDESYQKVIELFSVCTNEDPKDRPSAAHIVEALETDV
UniProt P09619, whole entry: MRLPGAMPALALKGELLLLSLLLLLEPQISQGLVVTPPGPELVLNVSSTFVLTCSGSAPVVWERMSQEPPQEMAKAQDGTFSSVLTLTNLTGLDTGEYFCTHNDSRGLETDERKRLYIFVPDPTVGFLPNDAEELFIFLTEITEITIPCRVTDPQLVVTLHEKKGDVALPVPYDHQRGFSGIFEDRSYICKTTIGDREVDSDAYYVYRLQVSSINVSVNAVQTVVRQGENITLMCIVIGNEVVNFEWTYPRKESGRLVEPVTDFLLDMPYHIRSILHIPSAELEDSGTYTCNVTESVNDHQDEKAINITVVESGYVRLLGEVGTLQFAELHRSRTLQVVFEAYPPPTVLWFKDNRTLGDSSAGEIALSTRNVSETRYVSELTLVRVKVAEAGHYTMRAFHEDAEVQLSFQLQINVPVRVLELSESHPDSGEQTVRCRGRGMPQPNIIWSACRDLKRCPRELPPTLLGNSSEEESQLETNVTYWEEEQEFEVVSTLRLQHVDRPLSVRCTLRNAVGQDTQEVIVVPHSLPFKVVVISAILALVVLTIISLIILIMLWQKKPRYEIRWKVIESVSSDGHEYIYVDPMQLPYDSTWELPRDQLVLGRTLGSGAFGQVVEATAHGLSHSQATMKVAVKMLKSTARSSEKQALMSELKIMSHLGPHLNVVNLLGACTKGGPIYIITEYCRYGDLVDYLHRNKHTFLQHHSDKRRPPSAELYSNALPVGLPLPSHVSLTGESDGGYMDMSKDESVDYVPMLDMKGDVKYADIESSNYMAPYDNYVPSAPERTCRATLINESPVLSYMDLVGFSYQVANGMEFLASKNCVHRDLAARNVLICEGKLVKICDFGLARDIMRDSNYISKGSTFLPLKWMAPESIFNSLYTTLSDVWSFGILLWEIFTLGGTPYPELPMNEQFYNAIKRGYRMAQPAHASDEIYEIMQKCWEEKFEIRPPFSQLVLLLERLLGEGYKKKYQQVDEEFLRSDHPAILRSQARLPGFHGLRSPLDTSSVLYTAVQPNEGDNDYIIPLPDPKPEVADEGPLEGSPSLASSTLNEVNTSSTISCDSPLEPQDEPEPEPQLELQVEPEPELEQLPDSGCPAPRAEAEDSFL
UniProt Q15118, whole entry, looked up: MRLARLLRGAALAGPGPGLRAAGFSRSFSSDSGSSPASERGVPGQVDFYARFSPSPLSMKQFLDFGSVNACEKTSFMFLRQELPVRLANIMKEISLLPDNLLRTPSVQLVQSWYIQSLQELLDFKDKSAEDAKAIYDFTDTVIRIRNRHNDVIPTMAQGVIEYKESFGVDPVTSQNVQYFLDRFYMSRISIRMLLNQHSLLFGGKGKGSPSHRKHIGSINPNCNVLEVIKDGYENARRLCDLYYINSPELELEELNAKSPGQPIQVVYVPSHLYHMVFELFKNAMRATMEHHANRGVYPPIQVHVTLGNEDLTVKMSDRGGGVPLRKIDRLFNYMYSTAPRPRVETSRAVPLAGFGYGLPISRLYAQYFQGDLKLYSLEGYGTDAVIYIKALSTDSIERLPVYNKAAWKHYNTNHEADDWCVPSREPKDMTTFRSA
UniProt P42356, whole entry, looked up: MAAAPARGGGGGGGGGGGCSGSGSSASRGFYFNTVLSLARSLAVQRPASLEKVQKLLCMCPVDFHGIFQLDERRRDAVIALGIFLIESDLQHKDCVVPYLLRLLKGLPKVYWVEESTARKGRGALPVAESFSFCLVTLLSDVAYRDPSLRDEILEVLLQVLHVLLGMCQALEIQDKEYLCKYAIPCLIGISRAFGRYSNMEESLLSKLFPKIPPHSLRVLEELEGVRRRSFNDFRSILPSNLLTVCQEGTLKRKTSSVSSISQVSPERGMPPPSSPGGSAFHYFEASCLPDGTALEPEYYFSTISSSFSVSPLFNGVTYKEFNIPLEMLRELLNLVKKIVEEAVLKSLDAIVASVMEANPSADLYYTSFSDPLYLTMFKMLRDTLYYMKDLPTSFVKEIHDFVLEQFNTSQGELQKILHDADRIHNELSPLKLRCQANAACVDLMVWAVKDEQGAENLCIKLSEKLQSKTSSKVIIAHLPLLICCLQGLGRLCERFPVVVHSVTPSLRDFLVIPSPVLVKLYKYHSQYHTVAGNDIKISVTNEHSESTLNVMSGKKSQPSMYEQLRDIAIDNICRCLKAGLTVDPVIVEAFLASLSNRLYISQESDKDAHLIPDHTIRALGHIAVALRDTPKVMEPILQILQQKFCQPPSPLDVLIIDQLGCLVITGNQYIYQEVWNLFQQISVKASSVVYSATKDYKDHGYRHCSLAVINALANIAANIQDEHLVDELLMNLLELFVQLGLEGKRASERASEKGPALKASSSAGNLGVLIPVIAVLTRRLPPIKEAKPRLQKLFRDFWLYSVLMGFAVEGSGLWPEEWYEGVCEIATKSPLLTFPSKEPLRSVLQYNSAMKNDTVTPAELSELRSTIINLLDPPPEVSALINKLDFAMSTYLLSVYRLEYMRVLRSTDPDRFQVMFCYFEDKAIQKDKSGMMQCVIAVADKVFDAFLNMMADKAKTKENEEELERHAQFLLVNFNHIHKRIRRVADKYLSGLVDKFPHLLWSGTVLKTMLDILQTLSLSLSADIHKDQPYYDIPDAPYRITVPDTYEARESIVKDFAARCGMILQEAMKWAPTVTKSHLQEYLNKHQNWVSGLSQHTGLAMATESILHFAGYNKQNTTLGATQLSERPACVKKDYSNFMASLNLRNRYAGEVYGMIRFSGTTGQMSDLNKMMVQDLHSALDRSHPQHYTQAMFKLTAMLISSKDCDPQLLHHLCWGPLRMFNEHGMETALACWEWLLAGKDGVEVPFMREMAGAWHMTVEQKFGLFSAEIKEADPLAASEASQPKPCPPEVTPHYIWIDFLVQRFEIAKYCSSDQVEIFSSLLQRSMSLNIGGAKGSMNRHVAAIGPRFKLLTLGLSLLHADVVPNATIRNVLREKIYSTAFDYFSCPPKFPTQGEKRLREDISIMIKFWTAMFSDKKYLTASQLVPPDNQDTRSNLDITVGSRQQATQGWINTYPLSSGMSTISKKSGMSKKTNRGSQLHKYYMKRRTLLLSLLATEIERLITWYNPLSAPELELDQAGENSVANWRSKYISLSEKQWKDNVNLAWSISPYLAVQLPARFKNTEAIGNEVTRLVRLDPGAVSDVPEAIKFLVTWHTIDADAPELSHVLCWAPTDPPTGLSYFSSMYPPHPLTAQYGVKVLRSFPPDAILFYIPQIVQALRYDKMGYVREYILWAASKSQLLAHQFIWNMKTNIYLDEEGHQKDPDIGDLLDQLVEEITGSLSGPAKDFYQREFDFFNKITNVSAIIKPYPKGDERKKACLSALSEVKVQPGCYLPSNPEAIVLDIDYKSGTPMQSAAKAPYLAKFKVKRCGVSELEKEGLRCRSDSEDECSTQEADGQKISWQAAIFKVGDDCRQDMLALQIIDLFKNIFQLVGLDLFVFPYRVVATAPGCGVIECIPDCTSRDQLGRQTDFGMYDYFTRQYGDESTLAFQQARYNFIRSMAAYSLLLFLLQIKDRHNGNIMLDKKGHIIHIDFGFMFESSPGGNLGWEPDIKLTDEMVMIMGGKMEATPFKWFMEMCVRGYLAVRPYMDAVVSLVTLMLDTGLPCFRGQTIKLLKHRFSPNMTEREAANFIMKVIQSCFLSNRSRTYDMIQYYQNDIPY
UniProt P53350, whole entry: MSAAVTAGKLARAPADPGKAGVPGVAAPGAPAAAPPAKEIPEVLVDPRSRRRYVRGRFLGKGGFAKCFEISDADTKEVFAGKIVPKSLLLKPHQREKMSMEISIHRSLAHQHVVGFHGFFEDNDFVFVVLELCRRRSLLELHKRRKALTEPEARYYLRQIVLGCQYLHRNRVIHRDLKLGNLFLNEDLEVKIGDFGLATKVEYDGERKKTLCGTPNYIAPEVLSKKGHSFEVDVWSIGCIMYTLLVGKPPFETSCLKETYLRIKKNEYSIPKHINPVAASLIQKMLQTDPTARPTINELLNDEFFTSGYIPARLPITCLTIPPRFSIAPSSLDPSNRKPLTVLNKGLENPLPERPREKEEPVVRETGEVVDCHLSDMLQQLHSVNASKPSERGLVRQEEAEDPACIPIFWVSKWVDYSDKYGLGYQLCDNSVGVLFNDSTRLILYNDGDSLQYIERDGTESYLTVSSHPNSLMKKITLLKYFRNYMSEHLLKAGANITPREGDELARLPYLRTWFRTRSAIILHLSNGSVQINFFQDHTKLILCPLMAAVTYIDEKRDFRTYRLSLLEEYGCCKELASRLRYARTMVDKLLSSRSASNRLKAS
UniProt Q13131: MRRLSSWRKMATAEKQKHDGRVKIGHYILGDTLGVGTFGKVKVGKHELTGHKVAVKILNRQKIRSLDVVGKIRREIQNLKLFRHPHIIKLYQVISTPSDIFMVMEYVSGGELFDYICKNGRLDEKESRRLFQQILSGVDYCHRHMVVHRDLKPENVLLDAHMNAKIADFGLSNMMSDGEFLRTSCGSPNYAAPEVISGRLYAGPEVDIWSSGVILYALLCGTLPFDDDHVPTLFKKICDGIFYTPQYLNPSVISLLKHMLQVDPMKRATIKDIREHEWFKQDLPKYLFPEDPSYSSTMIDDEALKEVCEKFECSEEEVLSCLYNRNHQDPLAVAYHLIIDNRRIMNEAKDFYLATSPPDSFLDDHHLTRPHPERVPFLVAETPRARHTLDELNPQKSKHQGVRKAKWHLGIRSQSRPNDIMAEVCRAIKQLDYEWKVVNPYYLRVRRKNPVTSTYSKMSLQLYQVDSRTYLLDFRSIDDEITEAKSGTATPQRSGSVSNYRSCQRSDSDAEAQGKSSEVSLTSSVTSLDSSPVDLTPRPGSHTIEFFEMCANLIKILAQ

Key:
Experiment in all cases: number of time points (of 5) at which kinase-Nluc abundance scored as decreased, DMSO-normalised (count); higher = more persistent destabilization
Conditions in all cases: K562; 2-18 h
NTRK3 = NTRK3 (UniProt Q16288)
PAK4 = PAK4 (UniProt O96013)
PBK = PBK (UniProt Q96KB5)
PDGFRB = PDGFRB (UniProt P09619)
PDK1 = PDK1 (UniProt Q15118)
PDPK1 = PDPK1 (UniProt O15530)
PIK4CA = PIK4CA (UniProt P42356)
PIK4CB = PIK4CB (UniProt Q9UBF8)
PLK1 = PLK1 (UniProt P53350)
PRKAA1 = PRKAA1 (UniProt Q13131)

| SMILES | number of time points (NTRK3) | number of time points (PAK4) | number of time points (PBK) | number of time points (PDGFRB) | number of time points (PDK1) | number of time points (PDPK1) | number of time points (PIK4CA) | number of time points (PIK4CB) | number of time points (PLK1) | number of time points (PRKAA1) |
| --- | --- | --- | --- | --- | --- | --- | --- | --- | --- | --- |
| Fc1ccc2[nH]ccc2c1-c1nc(N2CCOCC2)c2sc(CN3CCN(CC4CC4)CC3)cc2n1 (10 µM) | 0 | 0 | 0 | 0 | 0 | 0 | 0 | 0 | 0 | 0 |
| COc1cc2ncnc(Oc3ccc(CC(=O)Nc4cnn(C(C)C)c4)cc3)c2cc1OC (10 µM) | 3 | 0 | 0 | 0 | 0 | 1 | 0 | 0 | 0 | 0 |
| O=C1Nc2ccc(CN3C(=O)CSC3=O)cc2/C1=C/c1cc(CN2CCOCC2)c[nH]1 (10 µM) | 0 | 0 | 0 | 0 | 0 | 0 | 0 | 0 | 0 | 0 |
| Clc1ccc(C(c2ccc(Cl)cc2)[n+]2ccn(CC(OCc3ccc(Cl)cc3Cl)c3ccc(Cl)cc3Cl)c2)cc1 (stereo not given) [Calmidazolium chloride] (2.5 µM) | 0 | 0 | 0 | 0 | 0 | 0 | 0 | 2 | 0 | 0 |
| CCn1c(-c2nonc2N)nc2c(C#CC(C)(C)O)ncc(OC[C@H]3CCCNC3)c21 (10 µM) | 0 | 0 | 0 | 0 | 0 | 0 | 0 | 0 | 0 | 0 |
| C=C1CCC[C@]2(C)C=C3OC(=O)C(C)=C3C[C@@H]12 [Atractylenolide I] (10 µM) | 0 | 0 | 0 | 0 | 0 | 0 | 0 | 0 | 0 | 0 |
| O=C1CC[C@H](NC(=O)Cc2ccccc2)C(=O)N1 [Antineoplaston A10] (10 µM) | 0 | 0 | 0 | 0 | 0 | 0 | 0 | 0 | 0 | 0 |
| CNC(=O)c1ccc2c(C(=Nc3cccc(CN(C)C)c3)c3ccccc3)c(O)[nH]c2c1 [MEK inhibitor] (10 µM) | 0 | 0 | 0 | 0 | 0 | 0 | 0 | 0 | 0 | 0 |
| CC1CN(CC2CCN(Cc3ccccc3)CC2)C(=O)N(c2cccc(C(=N)N)c2)C1 (stereo not given) (10 µM) | 0 | 0 | 0 | 0 | 0 | 0 | 0 | 0 | 0 | 0 |
| Cc1ccc(C(=O)NC2CC2)cc1-n1ncc(C(=O)c2cccc(C#N)c2)c1N [Acumapimod] (10 µM) | 0 | 0 | 0 | 0 | 0 | 0 | 0 | 0 | 0 | 0 |
| Nc1[nH]nc2nc(-c3ccc(NS(=O)(=O)c4cc(Cl)ccc4Cl)cc3)cnc12 (10 µM) | 0 | 0 | 0 | 0 | 0 | 0 | 0 | 0 | 0 | 0 |
| CO[C@H]1C[C@@H]2CC[C@@H](C)[C@@](O)(O2)C(=O)C(=O)N2CCCC[C@H]2C(=O)O[C@H]([C@H](C)C[C@@H]2CC[C@@H](OCCO)[C@H](OC)C2)CC(=O)[C@H](C)/C=C(\C)[C@@H](O)[C@@H](OC)C(=O)[C@H](C)C[C@H](C)/C=C/C=C/C=C/1C [Everolimus] (10 µM) | 0 | 0 | 0 | 0 | 0 | 0 | 0 | 0 | 1 | 0 |
| Cc1cnc(NC(=O)c2cc(Oc3cnc(C(=O)N(C)C)nc3)c3cc(C)oc3c2)cn1 (10 µM) | 0 | 0 | 0 | 0 | 0 | 0 | 0 | 0 | 0 | 0 |
| O=c1c2c([nH]n1-c1nc3ccccc3s1)CCCC2 (10 µM) | 0 | 0 | 0 | 0 | 0 | 0 | 0 | 0 | 0 | 0 |
| O=C(O)c1cc(N(Cc2ccccc2O)Cc2cc(O)ccc2O)ccc1O [Lavendustin A] (10 µM) | 0 | 0 | 0 | 0 | 0 | 0 | 0 | 0 | 0 | 0 |
| Cc1ccc(-n2nc(C(C)(C)C)cc2NC(=O)Nc2ccc(OCCN3CCOCC3)cc2)cc1 (10 µM) | 0 | 0 | 0 | 0 | 0 | 0 | 0 | 0 | 0 | 0 |
| N#Cc1ccc(-c2cnc3ccc(-c4ccc(C(=O)N5CCOCC5)cc4)cn23)cc1 (10 µM) | 0 | 0 | 0 | 0 | 0 | 0 | 0 | 0 | 0 | 0 |
| Cc1cc([C@@H](C)Nc2ccccc2C(=O)O)c2nc(N3CCOCC3)cc(=O)n2c1 (10 µM) | 0 | 0 | 0 | 0 | 0 | 0 | 0 | 0 | 0 | 0 |

| SMILES | number of time points (NTRK3) | number of time points (PAK4) | number of time points (PBK) | number of time points (PDGFRB) | number of time points (PDK1) | number of time points (PDPK1) | number of time points (PIK4CA) | number of time points (PIK4CB) | number of time points (PLK1) | number of time points (PRKAA1) |
| --- | --- | --- | --- | --- | --- | --- | --- | --- | --- | --- |
| C[C@@H]1O[C@@H](Oc2cc(O)c3c(=O)c(O[C@@H]4O[C@@H](C)[C@H](O)[C@@H](O)[C@H]4O)c(-c4ccc(O)cc4)oc3c2)[C@H](O)[C@H](O)[C@H]1O [Kaempferitrin] (10 µM) | 0 | 0 | 0 | 0 | 0 | 0 | 0 | 0 | 0 | 0 |
| CC(C)n1c([C@H](C)Nc2ncnc(N)c2C#N)cc2cccc(-c3ccc(=O)n(C)c3)c2c1=O (10 µM) | 0 | 0 | 0 | 0 | 0 | 0 | 0 | 0 | 0 | 0 |
| COc1cc(-c2cc(OP(=O)(O)O)cc(-c3cc(OC)c(OC)c(OC)c3)c2)cc(OC)c1OC [Stafia-1] (10 µM) | 0 | 0 | 0 | 0 | 0 | 0 | 0 | 0 | 0 | 0 |
| Cc1cc(C)cc(NC(N)=Nc2ccccc2C(F)(F)F)c1 (10 µM) | 0 | 0 | 0 | 0 | 0 | 0 | 0 | 0 | 0 | 0 |
| CN1CCN(c2ccc(Nc3ncc4cc(C#N)c(=O)n(C5CCCC5)c4n3)cc2)CC1 (10 µM) | 0 | 0 | 0 | 0 | 0 | 0 | 0 | 0 | 0 | 0 |
| C=CC(=O)N1CCC[C@@H](n2nc(-c3ccc(Oc4ccccc4)cc3)c3c(N)n[nH]c(=O)c32)C1 [BTK inhibitor 17] (10 µM) | 0 | 0 | 0 | 0 | 0 | 0 | 0 | 0 | 0 | 0 |
| O=C(Nc1cccnc1)c1cc(-c2ccnc(F)c2)ccc1OCc1ccccc1 (10 µM) | 0 | 0 | 0 | 0 | 0 | 0 | 0 | 0 | 0 | 0 |
| COc1ccc(-c2cc(=O)c3c(OC)cc(OC)c(OC)c3o2)cc1 [6-Demethoxytangeretin] (10 µM) | 0 | 0 | 0 | 0 | 0 | 0 | 0 | 0 | 0 | 0 |
| CCc1c[nH]c2ncnc(N3CC[C@](N)(CNC(=O)c4ccc(F)cc4F)C3)c12 (10 µM) | 0 | 0 | 0 | 0 | 0 | 0 | 0 | 0 | 0 | 0 |
| CNC(=O)c1cc2c(Oc3ccc(NC(=O)C4(C(=O)Nc5ccc(F)cc5)CC4)cc3)ccnc2cc1OC (2.5 µM) | 1 | 0 | 0 | 4 | 0 | 4 | 2 | 1 | 3 | 2 |
| COc1ccc(S(=O)(=O)Nc2cc(-c3c(O)ccc4ccccc34)c(O)c3ccccc23)cc1 (10 µM) | 0 | 0 | 0 | 0 | 0 | 0 | 0 | 0 | 0 | 0 |
| CN1CCN(c2cc(-c3ccncc3)c(-c3ccc4ccccc4c3)nn2)CC1 (10 µM) | 0 | 0 | 0 | 0 | 0 | 0 | 0 | 0 | 0 | 0 |
| COC(=O)Nc1ccc(-c2nc(N3CCOCC3)c3cnn(C4CCN(Cc5cccnc5)CC4)c3n2)cc1 (10 µM) | 0 | 0 | 0 | 0 | 0 | 0 | 0 | 0 | 0 | 0 |
| Nc1ncc(C(=O)NC2CN(C(=O)C3CC3)C2)c2ccc(-c3cccc(F)c3)nc12 (2 µM) | 0 | 0 | 0 | 0 | 0 | 0 | 0 | 0 | 0 | 0 |
| CNC(=O)CNc1cnc2ccc(-c3ccc(OC)c(OC)c3)cc2n1 (10 µM) | 0 | 0 | 0 | 0 | 0 | 0 | 0 | 0 | 0 | 0 |
| O=c1cc(N2CCOCC2)oc2c(-c3ccc4c(c3)OCCO4)csc12 (2.5 µM) | 0 | 0 | 0 | 0 | 0 | 0 | 0 | 0 | 0 | 0 |
| CC(C)CCN1c2nc(Nc3cc(F)c(O)c(F)c3)ncc2N(C)C(=O)C1C (stereo not given) (2.5 µM) | 0 | 0 | 0 | 0 | 0 | 0 | 0 | 0 | 0 | 0 |
| N#C/C(=C\c1ccc(O)c(O)c1)C(=O)O [Tyrphostin AG30] (10 µM) | 0 | 0 | 0 | 0 | 0 | 0 | 0 | 0 | 0 | 0 |

2 entries from above, reformatted.
SMILES	number of time points (NTRK3)	number of time points (PAK4)	number of time points (PBK)	number of time points (PDGFRB)	number of time points (PDK1)	number of time points (PDPK1)	number of time points (PIK4CA)	number of time points (PIK4CB)	number of time points (PLK1)	number of time points (PRKAA1)
Fc1ccc2[nH]ccc2c1-c1nc(N2CCOCC2)c2sc(CN3CCN(CC4CC4)CC3)cc2n1 (10 µM)	0	0	0	0	0	0	0	0	0	0
Cc1cc([C@@H](C)Nc2ccccc2C(=O)O)c2nc(N3CCOCC3)cc(=O)n2c1 (10 µM)	0	0	0	0	0	0	0	0	0	0
